According to doi:10.1101/2020.06.18.159806:
Residue numbers refer to the chain shown, from its start. Where two headings read alike, the source gives them in different places. No constants are given. Whether binding was seen depends on the method and setting. Binding seen in cells or lysates may run through a third protein. Some results given as binding are weak or reduced against the parent protein; the word gives no strength. Where a sequence is shown, tags or fusion partners need not be part of it.

Protein sequences, listed by entry. Tags and fused reporters are not part of them. Lines headed by an entry give the natural chain unless they say otherwise; changes in a name come on top. Residues count along the entry.
UniProt P22681, 47-357: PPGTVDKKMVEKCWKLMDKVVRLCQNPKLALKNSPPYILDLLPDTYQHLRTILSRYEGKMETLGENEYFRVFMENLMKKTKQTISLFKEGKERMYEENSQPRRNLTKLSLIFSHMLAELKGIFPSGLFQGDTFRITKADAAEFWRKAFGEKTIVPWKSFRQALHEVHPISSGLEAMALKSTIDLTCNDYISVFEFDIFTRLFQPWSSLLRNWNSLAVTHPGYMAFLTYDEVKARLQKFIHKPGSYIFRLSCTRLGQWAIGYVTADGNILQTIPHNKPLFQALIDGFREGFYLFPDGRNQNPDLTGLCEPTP

Tests used:
Assay in all cases: pull-down
[1] = target: T1, Trx-His(6)-Δlinker-hSLAP2 (human SLAP2 residues 29-261) (human) (UniProt Q9H6Q3)
T1 sequence: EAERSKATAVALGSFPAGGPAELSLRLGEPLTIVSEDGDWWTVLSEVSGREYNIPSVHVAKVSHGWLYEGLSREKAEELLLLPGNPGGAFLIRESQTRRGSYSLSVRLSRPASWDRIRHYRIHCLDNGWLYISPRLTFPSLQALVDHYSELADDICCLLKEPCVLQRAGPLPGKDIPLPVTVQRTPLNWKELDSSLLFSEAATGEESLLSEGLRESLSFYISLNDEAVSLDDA

[2] = target: T1, Trx-His(6)-Δlinker-hSLAP2 (human SLAP2 residues 29-261) (human); remark: listed apart in the source
[3] = target: T2, Trx-His(6)-Δlinker-hSLAP2 (29-261) Y248F (human) (UniProt Q9H6Q3)
T2 sequence: T1 sequence with Y220F

[4] = target: T3, Trx-His(6)-Δlinker-hSLAP2 (29-261) S244E (human) (UniProt Q9H6Q3)
T3 sequence: T1 sequence with S216E

[5] = target: T4, Trx-His(6)-Δlinker-hSLAP2 (29-261) I249W (human) (UniProt Q9H6Q3)
T4 sequence: T1 sequence with I221W

[6] = target: T5, Trx-His(6)-Δlinker-hSLAP2 (29-261) R242A (human) (UniProt Q9H6Q3)
T5 sequence: T1 sequence with R214A

[7] = target: T6, Trx-His(6)-Δlinker-hSLAP2 (29-261) G240R (human) (UniProt Q9H6Q3)
T6 sequence: T1 sequence with G212R

[8] = target: T7, Trx-His(6)-Δlinker-hSLAP2 (29-261) S246/250E (human) (UniProt Q9H6Q3)
T7 sequence: T1 sequence with S218E, S222E

Measured: binding

CBL (47-357) A223R (from UniProt P22681 47-357) (domain or fragment)
binds: [1]

CBL (47-357), co-expressed from MCS2 of pETDuet-1 (from UniProt P22681 47-357) (domain or fragment)
binds: all assays above
